# Percent effect of library compounds

Sequences of proteins named here, by UniProt entry; tags and fusion partners are left off.
UniProt P9WNZ1, whole entry: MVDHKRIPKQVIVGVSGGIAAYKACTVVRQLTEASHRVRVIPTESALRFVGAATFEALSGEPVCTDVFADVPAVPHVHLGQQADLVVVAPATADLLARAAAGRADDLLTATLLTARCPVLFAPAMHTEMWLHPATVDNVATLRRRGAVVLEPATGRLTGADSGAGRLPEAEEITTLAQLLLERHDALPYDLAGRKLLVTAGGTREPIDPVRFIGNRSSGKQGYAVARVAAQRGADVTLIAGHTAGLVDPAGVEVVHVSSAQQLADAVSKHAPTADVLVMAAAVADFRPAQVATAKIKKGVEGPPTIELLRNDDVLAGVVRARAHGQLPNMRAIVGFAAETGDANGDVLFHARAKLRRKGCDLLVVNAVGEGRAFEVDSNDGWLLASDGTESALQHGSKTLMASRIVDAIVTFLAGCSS
UniProt P9WFT3, whole entry: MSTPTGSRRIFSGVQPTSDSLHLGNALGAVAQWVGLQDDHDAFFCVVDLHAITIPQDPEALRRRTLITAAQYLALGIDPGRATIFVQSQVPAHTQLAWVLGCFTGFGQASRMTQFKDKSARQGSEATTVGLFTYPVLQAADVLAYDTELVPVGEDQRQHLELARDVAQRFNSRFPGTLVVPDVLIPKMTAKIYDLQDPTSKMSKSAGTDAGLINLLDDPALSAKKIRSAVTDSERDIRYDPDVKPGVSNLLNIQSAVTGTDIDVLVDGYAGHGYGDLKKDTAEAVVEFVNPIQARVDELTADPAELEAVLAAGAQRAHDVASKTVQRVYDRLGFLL

The values are deposited in ChEMBL (CHEMBL3988442, “University of Dundee, Small-Polar-MMV Screening Library” (2021)).

Values are the deposited “Percent Effect”, in %.
The record does not define 0% and 100%; most values in the screen are far below 50% and negative numbers occur (in some assays of this library far below -100).
Compounds were drawn at random from those tested, without regard to their results.

A: 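Enzyme assay of CoaBC with a phosphate dye (Biomol Green) read at 650 nm. Target: Coenzyme A biosynthesis protein CoaBC, Mycobacterium tuberculosis (UniProt P9WNZ1). Concentration: 30 µM. Direction is inferred from only a few compounds that gave an IC50; most scored high, so higher reads as stronger inhibition. Most strong results did not repeat in a second test. Size under these conditions: about 67,000 compounds, about 40 of them at 50% or above in at least one test.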
B: 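Tryptophan-tRNA ligase, Mycobacterium tuberculosis (UniProt P9WFT3). Enzyme assay of tryptophanyl-tRNA synthetase; the read-out is not stated. Tested at 10 µM. Direction is not recorded; retested compounds ran higher, which suggests that high means inhibition. Of about 65,000 compounds tested this way, about 64 (0.098%) reached 50% or more in at least one test.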

- COCC(=O)N1CCCC(c2cccc(-n3ccnc3)n2)C1 (stereo not given) | A: 0.4854%
- c1ccc2c(Cc3nnc([C@H]4CCNC4)o3)c[nH]c2c1 | A: -26.13%; B: -6.789%
- Cc1nn(C)c(N2CCOCC2)c1CNC1CCc2ccccc21 (stereo not given) | A: 0%; B: -2.063%
- CCOc1ccc(NC(=O)Nc2cnc(N3CCOCC3)nc2)cc1 | A: 2.133%; B: 0.552%
- CN1CCN(CCOc2ccc(NC(=O)c3ccc[nH]3)cc2)CC1 | A: 0.3822%; B: -0.1023%
- CCN(CCNCc1ccc(C#N)cc1)C1CC1 | A: -8.104%; B: -0.9372%
- Cc1cc(C(=O)N2CCCC(c3cc(C(F)(F)F)[nH]n3)C2)on1 (stereo not given) | A: -2.551%; B: -5.254%
- COCCCC1(CO)CCCN(C(=O)c2cnc(C3CC3)nc2)C1 (stereo not given) | A: 3.163%; B: -4.43%
- CNC(=O)[C@@H]1C[C@@H](n2cc(-c3ccc(Cl)cc3)nn2)CN1 | A: -5.432%; B: 37.12%
- Cc1ccc2c(c1)C(NC(=O)N(C)C)CC21CCN(C(C)C)CC1 (stereo not given) | A: 2.836%; B: -0.9752%
- CCOC(=O)[C@H]1CNC[C@@H]1C(=O)OCC | A: -5.063%; B: -5.718%
- c1ccc(C2CCCN(Cc3cc4n(n3)CCNC4)CC2)cc1 (stereo not given) | A: -28.12%; B: -6.708%
- Cc1ccc(C(=O)N2CC(Oc3ccccc3C)C2)s1 | A: 5.696%; B: 5.982%
- CCCc1cc(=O)[nH]c(SCc2ccccn2)n1 | A: -2.421%; B: -3.099%
- CC(=O)N1CCC1c1cc(N2CCSCC2)nc(C)n1 (stereo not given) | A: 0.7884%; B: -5.39%
- Cc1cccc(CN2CCC(NCC3CNc4cc(C)nn4C3)CC2)c1 (stereo not given) | A: -48.93%; B: -1.143%
- Cc1nn(C)c(C)c1C(C(=O)O)N1CC=C(c2ccccc2)CC1 (stereo not given) | A: -9.639%; B: 4.095%
- Cc1cc(NS(=O)(=O)c2ccccc2F)ccc1-n1cccc1C(=O)O | A: 3.374%; B: -5.191%
- CNC(=O)CN1CCC(NC(=O)Cc2ccc3c(c2)OCCO3)CC1 | A: -9.318%; B: -1.687%
- COc1ccccc1NC(=O)CC(C)NCCc1sc(C)nc1C (stereo not given) | A: 0.9615%; B: -2.734%
- CNC(=O)N1CC[C@H]2N(C)CC[C@@]2(C(=O)Nc2ccccc2)CC1 | A: 5.59%; B: -0.7505%
- COc1ccc2c(c1)C(C(=O)N(C)CCn1ccnc1C)CC(=O)N2 (stereo not given) | A: 2.419%; B: -4.262%
- Cn1cc2c(n1)C(CNCC1CCOCC1)OCC2 (stereo not given) | A: -3.484%; B: 0.9149%
- O=C(c1ccsc1)N1C[C@H](N2CCOCC2)[C@@H]2OCCC[C@@H]21 | A: 10.79%; B: 6.312%
- CC(C)(O)CCc1cccc(C(=O)N2Cc3cnn(CCO)c3C2)c1 | A: -0.4592%; B: 9.545%
- Cc1ccc(CS(=O)(=O)N2CC[C@H]3[C@H]2CC(=O)N3C)cc1 | A: 1.85%; B: 1.351%
- c1cncc(COCc2nnc3n2CCN(Cc2ccco2)C3)c1 | A: 0%; B: -1.302%
- CCCS(=O)(=O)N1CCC(NC(=O)c2cc(C)c(CC)s2)CC1 | A: -0.8929%; B: 1.599%
- CN1C[C@H]2CN(Cc3cccc(OC(F)(F)F)c3)CCN2C1=O | A: -2.161%; B: 3.127%
- O=C(C1CCCCC1)N1CCC2(COc3ncccc3S(=O)(=O)N2)C1 (stereo not given) | A: -2.895%; B: -0.9507%
- COc1c(C(=O)NCc2cnn(C)c2C)nnn1Cc1ccccc1 | A: -6.005%; B: -0.9067%
- CCC(C)NC(=O)c1cccc(CNC(=O)CC(F)(F)F)c1 (stereo not given) | A: 16.27%; B: 0.7498%
- CS(=O)(=O)N1CCC(C(=O)NCCNc2ncccn2)CC1 | A: 14.5%; B: -1.652%

For reference, 4 entries once more:

* Cc1cccc(CN2CCC(NCC3CNc4cc(C)nn4C3)CC2)c1 (stereo not given) : A: -48.93%; B: -1.143%
* CCCc1cc(=O)[nH]c(SCc2ccccn2)n1 : A: -2.421%; B: -3.099%
* CC(=O)N1CCC1c1cc(N2CCSCC2)nc(C)n1 (stereo not given) : A: 0.7884%; B: -5.39%
* COc1ccc2c(c1)C(C(=O)N(C)CCn1ccnc1C)CC(=O)N2 (stereo not given) : A: 2.419%; B: -4.262%